## Percent effect of library compounds

Measurements from “University of Dundee, Small-Polar-MMV Screening Library” (2021), ChEMBL document CHEMBL3988442.

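Cell assay of Leishmania donovani living inside macrophages; the read-out is not stated. Compounds at 30 µM. Higher reads as stronger inhibition (inferred: compounds with an IC50 in retests scored well above the rest). Of about 69,000 compounds tested this way, about 1,000 (1.5%) reached 50% or more in at least one test.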

Each number is a percent effect as filed. How 0% and 100% were set is not recorded. Most values in the screen are low, and negative values occur. This is an unselected part of the compounds tested. Two or more numbers in one place are separate tests of the same structure; such repeats can differ widely.

{"compound": "CCc1ccc(C(=O)N2CCCCC2CNS(C)(=O)=O)o1", "stereo": "stereo not given", "Percent Effect": 17.69}
{"compound": "CCOCC(=O)NCCC(O)c1ccoc1", "stereo": "stereo not given", "Percent Effect": 22.19}
{"compound": "O=C(NCC1CC1)C1CCC2(CCN(C(=O)c3ccccn3)CC2)O1.O=C(O)C(F)(F)F", "stereo": "stereo not given", "Percent Effect": -5.8}
{"compound": "CCN(Cc1cnn(C)c1)S(=O)(=O)N1CCCC1c1ccco1", "stereo": "stereo not given", "Percent Effect": -0.6676}
{"compound": "COc1ccc(OCCN(C)C(=O)c2ccc(OC)cc2O)cc1", "Percent Effect": 55.32}
{"compound": "Fc1cccc(CN2CCN(Cc3cscn3)CC2)c1", "Percent Effect": 11.58}
{"compound": "Cc1ccc(C)c2c(O)cc(CN3CCC(c4nncn4C)CC3)nc12", "Percent Effect": -25.35}
{"compound": "[H][C@@]12C[C@@H](c3nc(C)no3)O[C@]1([H])CN(S(=O)(=O)c1cccc(C)c1)C2", "Percent Effect": 27.05}
{"compound": "CCC(C)(CC(=O)OC)NCc1noc(C)n1", "stereo": "stereo not given", "Percent Effect": -18.84}
{"compound": "CCC(=O)NCCNC(=O)c1nn(C)c(C)c1Cl", "Percent Effect": -0.8741}
{"compound": "COCC(=O)N1CCC2(CCN(Cc3ccccn3)CC2)CC1", "Percent Effect": 28.2}
{"compound": "[H][C@@]12CN(Cc3ccc(C#N)cc3)C[C@]1([H])OCC(=O)N2CC(N)=O", "Percent Effect": 30.27}
{"compound": "OC(c1ccccn1)C1CCN(Cc2cc3n(n2)CCCNC3)CC1", "stereo": "stereo not given", "Percent Effect": "-21.46 and 15.76"}
{"compound": "[H][C@@]12CCN(c3ncccn3)[C@]1([H])CC[C@H](C(=O)NC)O2", "Percent Effect": 15.42}
{"compound": "COc1ccc(C2CCCCCN2S(N)(=O)=O)cc1", "stereo": "stereo not given", "Percent Effect": -0.8489}
{"compound": "Cc1nc(O)cc(CCNC(=O)C2CC(=O)N(CC(C)C)C2)n1", "stereo": "stereo not given", "Percent Effect": 30.47}
{"compound": "CC(C)(C)c1ccn(C2(C(=O)O)CCN(c3ccnc(N)n3)CC2)n1", "Percent Effect": 11.9}
{"compound": "CC(NC(=O)c1cccs1)C(=O)Nc1cccnc1N1CCCCC1", "stereo": "stereo not given", "Percent Effect": 7.89}
{"compound": "O=C1NCCCCC1SCc1coc(-c2ccc(F)cc2)n1", "stereo": "stereo not given", "Percent Effect": 32.69}
{"compound": "CC(C)c1nn(C)c(N(C)C)c1CNCc1ccnn1C", "Percent Effect": -10.55}
{"compound": "O=C(O)C(F)(F)F.[H][C@]12C[C@@H](Cn3cncn3)N(CC3CC3)[C@@]1([H])CCN(S(C)(=O)=O)C2", "Percent Effect": 5.253}
{"compound": "Cn1ccnc1-c1ccc(NCc2cn3c(n2)SCC3)nn1", "Percent Effect": 10.36}
{"compound": "Cc1ccnn1CC(=O)N(C)Cc1ccc(-n2cccn2)cc1", "Percent Effect": 24.88}
{"compound": "CCN1CCOC(CNCc2ccc(OC)c(F)c2)C1", "stereo": "stereo not given", "Percent Effect": 17.77}
{"compound": "[H][C@@]12CNC[C@]1([H])CN(C(=O)c1ccc(F)c(F)c1)C2", "Percent Effect": 12.44}
{"compound": "COc1cccc(N2CCN(Cc3nccc(OC)c3OC)CC2=O)c1", "Percent Effect": -35.64}
{"compound": "CCc1cnc(N2CCN(CC(=O)Nc3c(C)n[nH]c3C)CC2)s1", "Percent Effect": -7.434}
{"compound": "O=C(NC[C@H]1OC[C@@H](NC2CCCC2)[C@@H]1O)C1CCCC1", "Percent Effect": 1.827}
{"compound": "FC(F)(F)c1nnc2n1CCN(c1nc(C3CC3)ns1)C2", "Percent Effect": 2.297}
{"compound": "Cn1cc(C2CCCN2Cc2csc(C3CCCC3)n2)cn1", "stereo": "stereo not given", "Percent Effect": 4.563}
{"compound": "COCCO[C@H]1CCN(C(=O)c2cnccn2)[C@H]1Cc1ccncc1", "Percent Effect": 54.37}
{"compound": "Cc1cc2n(n1)CC(CNCc1ccc(OCC3CC3)nc1)CN2", "stereo": "stereo not given", "Percent Effect": 25.97}
{"compound": "COc1ccc(Oc2ccc(C(F)(F)F)cn2)cc1CN1CCCC1", "Percent Effect": 2.243}
{"compound": "CNC(=O)C1CCCCN1C(=O)C1CCN(S(C)(=O)=O)CC1", "stereo": "stereo not given", "Percent Effect": -0.6641}
{"compound": "Cc1c(C(=O)N(C)CC(F)(F)F)nnn1-c1ccccc1Cl", "Percent Effect": -20.1}
{"compound": "CCCC(NC(=O)c1ccc(OC)cc1C)c1nnn[nH]1", "stereo": "stereo not given", "Percent Effect": 21.88}
{"compound": "Cc1noc([C@@H]2C[C@H](NC(=O)NC3CCCCC3)CN2C)n1", "Percent Effect": 15.05}
{"compound": "O=C(O)C(F)(F)F.[H][C@@]12COC[C@@H](C(=O)N3CCC(F)CC3)[C@]1([H])CN(C1CCCC1)C2", "Percent Effect": 27.42}
{"compound": "Cc1ccc(CCC(=O)N2CCn3c(nnc3C(C)C)C2)cc1Cl", "Percent Effect": 6.75}
{"compound": "NC(=O)CN1CCCC(Cc2ccc(N3CCOCC3)nn2)C1", "stereo": "stereo not given", "Percent Effect": "19.61 and 19.94"}
{"compound": "COc1ccc(C(=O)Nc2c(C)nn(C(C)C)c2C)cc1", "Percent Effect": -18.42}